Results are given in words; binding and its absence hold for the method and conditions named. In cells and extracts the contact can be indirect. These calls come from enrichment with a bait or labelling near it, and not all partners need be listed.
B1: Wdr6 (protein, UniProt Q9NNW5 1-1121)
chain: MDALEDYVWPRATSELILLPVTGLECVGDRLLAGEGPDVLVYSLDFGGHLRMIKRVQNLLGHYLIHGFRVRPEPNGDLDLEAMVAVFGSKGLRVVKISWGQGHFWELWRSGLWNMSDWIWDARWLEGNIALALGHNSVVLYDPVVGCILQEVPCTDRCTLSSACLIGDAWKELTIVAGAVSNQLLVWYPATALADNKPVAPDRRISGHVGIIFSMSYLESKGLLATASEDRSVRIWKVGDLRVPGGRVQNIGHCFGHSARVWQVKLLENYLISAGEDCVCLVWSHEGEILQAFRGHQGRGIRAIAAHERQAWVITGGDDSGIRLWHLVGRGYRGLGVSALCFKSRSRPGTLKAVTLAGSWRLLAVTDTGALYLYDVEVKCWEQLLEDKHFQSYCLLEAAPGPEGFGLCAMANGEGRVKVVPINTPTAAVDQTLFPGKVHSLSWALRGYEELLLLASGPGGVVACLEISAAPSGKAIFVKERCRYLLPPSKQRWHTCSAFLPPGDFLVCGDRRGSVLLFPSRPGLLKDPGVGGKARAGAGAPVVGSGSSGGGNAFTGLGPVSTLPSLHGKQGVTSVTCHGGYVYTTGRDGAYYQLFVRDGQLQPVLRQKSCRGMNWLAGLRIVPDGSMVILGFHANEFVVWNPRSHEKLHIVNCGGGHRSWAFSDTEAAMAFAYLKDGDVMLYRALGGCTRPHVILREGLHGREITCVKRVGTITLGPEYGVPSFMQPDDLEPGSEGPDLTDIVITCSEDTTVCVLALPTTTGSAHALTAVCNHISSVRAVAVWGIGTPGGPQDPQPGLTAHVVSAGGRAEMHCFSIMVTPDPSTPSRLACHVMHLSSHRLDEYWDRQRNRHRMVKVDPETRYMSLAVCELDQPGLGPLVAAACSDGAVRLFLLQDSGRILQLLAETFHHKRCVLKVHSFTHEAPNQRRRLLLCSAATDGSLAFWDLTTMLDHDSTVLEPPVDPGLPYRLGTPSLTLQAHSCGINSLHTLPTREGHHLVASGSEDGSLHVFVLAVEMLQLEEAVGEAGLVPQLRVLEEYSVPCAHAAHVTGLKILSPSIMVSASIDQRLTFWRLGHGEPTFMNSTVFHVPDVADMDCWPVSPEFGHRCALGGQGLEVYNWYD
B2: Pip (protein, UniProt P12273 29-146)
chain: QDNTRKIIIKNFDIPKSVRPNDEVTAVLAVQTELKECMVVKTYLISSIPLQGAFNYKYTACLCDDNPKTFYWDFYTNRTVQIAAVVDVIRELGICPDDAAVIPIKNNRFYTIEILKVE
B3: Upf1 (protein, UniProt Q92900 1-1129)
chain: MSVEAYGPSSQTLTFLDTEEAELLGADTQGSEFEFTDFTLPSQTQTPPGGPGGPGGGGAGGPGGAGAGAAAGQLDAQVGPEGILQNGAVDDSVAKTSQLLAELNFEEDEEDTYYTKDLPIHACSYCGIHDPACVVYCNTSKKWFCNGRGNTSGSHIVNHLVRAKCKEVTLHKDGPLGETVLECYNCGCRNVFLLGFIPAKADSVVVLLCRQPCASQSSLKDINWDSSQWQPLIQDRCFLSWLVKIPSEQEQLRARQITAQQINKLEELWKENPSATLEDLEKPGVDEEPQHVLLRYEDAYQYQNIFGPLVKLEADYDKKLKESQTQDNITVRWDLGLNKKRIAYFTLPKTDSGNEDLVIIWLRDMRLMQGDEICLRYKGDLAPLWKGIGHVIKVPDNYGDEIAIELRSSVGAPVEVTHNFQVDFVWKSTSFDRMQSALKTFAVDETSVSGYIYHKLLGHEVEDVIIKCQLPKRFTAQGLPDLNHSQVYAVKTVLQRPLSLIQGPPGTGKTVTSATIVYHLARQGNGPVLVCAPSNIAVDQLTEKIHQTGLKVVRLCAKSREAIDSPVSFLALHNQIRNMDSMPELQKLQQLKDETGELSSADEKRYRALKRTAERELLMNADVICCTCVGAGDPRLAKMQFRSILIDESTQATEPECMVPVVLGAKQLILVGDHCQLGPVVMCKKAAKAGLSQSLFERLVVLGIRPIRLQVQYRMHPALSAFPSNIFYEGSLQNGVTAADRVKKGFDFQWPQPDKPMFFYVTQGQEEIASSGTSYLNRTEAANVEKITTKLLKAGAKPDQIGIITPYEGQRSYLVQYMQFSGSLHTKLYQEVEIASVDAFQGREKDFIILSCVRANEHQGIGFLNDPRRLNVALTRARYGVIIVGNPKALSKQPLWNHLLNYYKEQKVLVEGPLNNLRESLMQFSKPRKLVNTINPGARFMTTAMYDAREAIIPGSVYDRSSQGRPSSMYFQTHDQIGMISAGPSHVAAMNIPIPFNLVMPPMPPPGYFGQANGPAAGRGTPKGKTGRGGRQKNRFGLPGPSQTNLPNSQASQDVASQPFSQGALTQGYISMSQPSQMSQPGLSQPELSQDSYLGDEFKSQIDVALSQDSTYQGERAYQHGGVTGLSQY
B4: Prdm10 (protein, UniProt Q9NQV6 1-1147)
chain: MDSKDESSHVWPTSAEHEQNAAQVHFVPDTGTVAQIVYTDDQVRPPQQVVYTADGASYTSVDGPEHTLVYIHPVEAAQTLFTDPGQVAYVQQDATAQQASLPVHNQVLPSIESVDGSDPLATLQTPLGRLEAKEEEDEDEDEDTEEDEEEDGEDTDLDDWEPDPPRPFDPHDLWCEECNNAHASVCPKHGPLHPIPNRPVLTRARASLPLVLYIDRFLGGVFSKRRIPKRTQFGPVEGPLVRGSELKDCYIHLKVSLDKGDRKERDLHEDLWFELSDETLCNWMMFVRPAQNHLEQNLVAYQYGHHVYYTTIKNVEPKQELKVWYAASYAEFVNQKIHDISEEERKVLREQEKNWPCYECNRRFISSEQLQQHLNSHDEKLDVFSRTRGRGRGRGKRRFGPGRRPGRPPKFIRLEITSENGEKSDDGTQDLLHFPTKEQFDEAEPATLNGLDQPEQTTIPIPQLPQETQSSLEHEPETHTLHLQPQHEESVVPTQSTLTADDMRRAKRIRLELQNAALQHLFIRKSFRPFKCLQCGKAFREKDKLDQHLRFHGREGNCPLTCDLCNKGFISSTSLESHMKLHSDQKTYSCIFCPESFDRLDLLKDHVAIHINDGYFTCPTCKKRFPDFIQVKKHVRSFHSEKIYQCTECDKAFCRPDKLRLHMLRHSDRKDFLCSTCGKQFKRKDKLREHMQRMHNPEREAKKADRISRSKTFKPRITSTDYDSFTFKCRLCMMGFRRRGMLVNHLSKRHPDMKIEEVPELTLPIIKPNRDYFCQYCDKVYKSASKRKAHILKNHPGAELPPSIRKLRPAGPGEPDPMLSTHTQLTGTIATPPVCCPHCSKQYSSKTKMVQHIRKKHPEFAQLSNTIHTPLTTAVISATPAVLTTDSATGETVVTTDLLTQAMTELSQTLTTDYRTPQGDYQRIQYIPVSQSASGLQQPQHIQLQVVQVASATSPHQSQQSTVDVGQLHDPQPYPQHAIQVQHIQVSGQPLSPSAQQAQQGLSPSHIQGSSSTQGQALQQQQQQQQNSSVQHTYLPSAWNSFRGYSSEIQMMTLPPGQFVITDSGVATPVTTGQVKAVTSGHYVLSESQSELEEKQTSALSGGVQVEPPAHSDSLDPQTNSQQQTTQYIITTTTNGNGSSEVHITKP
B5: Nob1 (protein, UniProt Q9ULX3 1-412)
chain: MAPVEHVVADAGAFLRHAALQDIGKNIYTIREVVTEIRDKATRRRLAVLPYELRFKEPLPEYVRLVTEFSKKTGDYPSLSATDIQVLALTYQLEAEFVGVSHLKQEPQKVKVSSSIQHPETPLHISGFHLPYKPKPPQETEKGHSACEPENLEFSSFMFWRNPLPNIDHELQELLIDRGEDVPSEEEEEEENGFEDRKDDSDDDGGGWITPSNIKQIQQELEQCDVPEDVRVGCLTTDFAMQNVLLQMGLHVLAVNGMLIREARSYILRCHGCFKTTSDMSRVFCSHCGNKTLKKVSVTVSDDGTLHMHFSRNPKVLNPRGLRYSLPTPKGGKYAINPHLTEDQRFPQLRLSQKARQKTNVFAPDYIAGVSPFVENDISSRSATLQVRDSTLGAGRRRLNPNASRKKFVKKR
B6: Osbpl6 (protein, UniProt Q9BZF3 1-934)
chain: MSSDEKGISPAHKTSTPTHRSASSSTSSQRDSRQSIHILERTASSSTEPSVSRQLLEPEPVPLSKEADSWEIIEGLKIGQTNVQKPDKHEGFMLKKRKWPLKGWHKRFFVLDNGMLKYSKAPLDIQKGKVHGSIDVGLSVMSIKKKARRIDLDTEEHIYHLKVKSQDWFDAWVSKLRHHRLYRQNEIVRSPRDASFHIFPSTSTAESSPAANVSVMDGKMQPNSFPWQSPLPCSNSLPATCTTGQSKVAAWLQDSEEMDRCAEDLAHCQSNLVELSKLLQNLEILQRTQSAPNFTDMQANCVDISKKDKRVTRRWRTKSVSKDTKIQLQVPFSATMSPVRLHSSNPNLCADIEFQTPPSHLTDPLESSTDYTKLQEEFCLIAQKVHSLLKSAFNSIAIEKEKLKQMVSEQDHSKGHSTQMARLRQSLSQALNQNAELRSRLNRIHSESIICDQVVSVNIIPSPDEAGEQIHVSLPLSQQVANESRLSMSESVSEFFDAQEVLLSASSSENEASDDESYISDVSDNISEDNTSVADNISRQILNGELTGGAFRNGRRACLPAPCPDTSNINLWNILRNNIGKDLSKVSMPVELNEPLNTLQHLCEEMEYSELLDKASETDDPYERMVLVAAFAVSGYCSTYFRAGSKPFNPVLGETYECIREDKGFRFFSEQVSHHPPISACHCESKNFVFWQDIRWKNKFWGKSMEILPVGTLNVMLPKYGDYYVWNKVTTCIHNILSGRRWIEHYGEVTIRNTKSSVCICKLTFVKVNYWNSNMNEVQGVVIDQEGKAVYRLFGKWHEGLYCGVAPSAKCIWRPGSMPTNYELYYGFTRFAIELNELDPVLKDLLPPTDARFRPDQRFLEEGNLEAAASEKQRVEELQRSRRRYMEENNLEHIPKFFKKVIDANQREAWVSNDTYWELRKDPGFSKVDSPVLW
B7: Slc25a3 (protein, UniProt Q00325 50-362)
chain: AVEEQYSCDYGSGRFFILCGLGGIISCGTTHTALVPLDLVKCRMQVDPQKYKGIFNGFSVTLKEDGVRGLAKGWAPTFLGYSMQGLCKFGFYEVFKVLYSNMLGEENTYLWRTSLYLAASASAEFFADIALAPMEAAKVRIQTQPGYANTLRDAAPKMYKEEGLKAFYKGVAPLWMRQIPYTMMKFACFERTVEALYKFVVPKPRSECSKPEQLVVTFVAGYIAGVFCAIVSHPADSVVSVLNKEKGSSASLVLKRLGFKGVWKGLFARIIMIGTLTALQWFIYDSVKVYFRLPRPPPPEMPESLKKKLGLTQ
B8: Knop1 (protein, UniProt Q1ED39 1-458)
chain: MITKTHKVDLGLPEKKKKKKVVKEPETRYSVLNNDDYFADVSPLRATSPSKSVAHGQAPEMPLVKKKKKKKKGVSTLCEEHVEPETTLPARRTEKSPSLRKQVFGHLEFLSGEKKNKKSPLAMSHASGVKTSPDPRQGEEETRVGKKLKKHKKEKKGAQDPTAFSVQDPWFCEAREARDVGDTCSVGKKDEEQAALGQKRKRKSPREHNGKVKKKKKIHQEGDALPGHSKPSRSMESSPRKGSKKKPVKVEAPEYIPISDDPKASAKKKMKSKKKVEQPVIEEPALKRKKKKKRKESGVAGDPWKEETDTDLEVVLEKKGNMDEAHIDQVRRKALQEEIDRESGKTEASETRKWTGTQFGQWDTAGFENEDQKLKFLRLMGGFKNLSPSFSRPASTIARPNMALGKKAADSLQQNLQRDYDRAMSWKYSRGAGLGFSTAPNKIFYIDRNASKSVKLED

Target: Biotin-FOXC1 (mouse) (UniProt Q61572)
Test: affinity purification with mass spectrometry; streptavidin-agarose precipitation of biotinylated FOXC1 from nuclear extract of stable HEK293T cells (293T-Biotin-FOXC1); IP350 buffer (350 mM NaCl, 20 mM Tris-HCl pH 7.5, 0.5% NP40, 1 mM EDTA, 10% glycerin); SDS-PAGE, LC-ESI-MS/MS; proteins of the 293T-Biotin control deducted

Row | binding | Binder
1 | binds | B1
2 | binds | B2
3 | binds | B3
4 | binds | B4
5 | binds | B5
6 | binds | B6
7 | binds | B7
8 | binds | B8
